# Results deposited as PubChem BioAssay AID1224830 (NIAID, 2016).
# Screen: 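Host factors that control LPS-induced TNF expression in human macrophages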 (primary screen)
# Cells: human THP-1 monocytic leukaemia cells, TNF dual-luciferase reporter clone, PMA-differentiated to macrophage-like cells
# Reagents: siRNA pool against human genes, 50 nM
# Time to read-out: LPS for 4 h, given about 3 days after siRNA transfection
# Treatment: bacterial LPS (TLR4 ligand), 10 ng/ml
# Measurement: 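Ratio of firefly to renilla light, scaled to the plate median and expressed as a robust z-score per replicate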
# Direction: TNF reporter robust z-score: higher = stronger TNF reporter response to LPS
# Call rule: 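Each well counts as active if its z-score is over 2.8 or under -1.5; controls are left without a call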
# The deposit covers about 18,000 reagents; shown is a part drawn at random. In the full data, about 2,900 (16%) were called active. 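Calls are made per well; low scores hint the gene aids the LPS response, high scores that it dampens it.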 Entries without a mark were called inactive. Repeated entries: four replicate wells of each siRNA pool.
Gene,TNF reporter robust z-score
COL11A1,0.85
COL11A1,1.07
COL11A1,1.19
COL11A1,1.43
LIPA,1.78
LIPA,-0.65
LIPA,-0.86
LIPA,-0.01
ARF5,-0.89
ARF5,-1.05
ARF5,-1.16
ARF5,-1.34
KLHL4,-0.55
KLHL4,-1.29
KLHL4,-0.26
KLHL4,0.36
PROP1,-0.18
PROP1,0.08
PROP1,0.19
PROP1,0.26
HSD17B6,2.09
HSD17B6,0.7
HSD17B6,22.1 (active)
HSD17B6,1.89
SRP72,-0.84
SRP72,0.74
SRP72,0.75
SRP72,1.31
CD27,-0.27
CD27,0.21
CD27,-0.5
CD27,0.62
RAB22A,-0.45
RAB22A,0.01
RAB22A,0.42
RAB22A,1.23
WDR44,0.23
WDR44,0.33
WDR44,1.4
TRIM23,-0.01
TRIM23,2.29
TRIM23,0.37
TRIM23,0.31
CPAP,0
CPAP,0.85
CPAP,-0.48
CPAP,0.59
CAPS,-0.52
CAPS,0.16
CAPS,0
CAPS,0.56
TMEM81,0.73
TMEM81,-0.24
TMEM81,0.33
TMEM81,-1.05
SGSM1,-0.58
SGSM1,0.11
SGSM1,0.13
SGSM1,1.3
VRTN,0.66
VRTN,-0.37
VRTN,-1.13
VRTN,-0.68
SNW1,-1.47
SNW1,-2.01 (active)
SNW1,-1.85 (active)
SNW1,-1.22
LPCAT4,-1.76 (active)
LPCAT4,-1.71 (active)
LPCAT4,-1.19
LPCAT4,-0.77
RPL18A,0.12
RPL18A,-0.49
RPL18A,0.06
RPL18A,-0.27
HIP1R,0.14
HIP1R,0.74
HIP1R,0.23
HIP1R,1.15
RBPMS,-1.29
RBPMS,-1.17
RBPMS,-0.96
RBPMS,-1.18
EPCIP,0.42
EPCIP,0.61
EPCIP,-0.24
EPCIP,1.92
HEPN1,-0.74
HEPN1,-0.1
HEPN1,-0.67
HEPN1,0
ZNF17,0.81
ZNF17,1.86
ZNF17,0.59
ZNF17,1.52
YLPM1,-0.72
YLPM1,0.07
YLPM1,0.2
YLPM1,1.24
IRGC,-0.73
IRGC,-0.52
IRGC,-0.1
IRGC,-0.59
ZNF606,-0.15
ZNF606,0.33
ZNF606,-0.83
ZNF606,-0.53
SASH3,-1.4
SASH3,-1.28
SASH3,-1.21

Reagents listed so far called active, once more:
Gene,TNF reporter robust z-score
HSD17B6,22.1 (active)
SNW1,-2.01 (active)
SNW1,-1.85 (active)
LPCAT4,-1.76 (active)
LPCAT4,-1.71 (active)
